No constants are given. Whether binding was seen depends on the method and setting. In cells and extracts the contact can be indirect. Some binding calls cover weakened binding; strength is not graded here.
Target: T1, Squid (Drosophila (endogenous in larvae, Oregon-R-P2 wild type strain)) (UniProt Q08473)
T1 sequence: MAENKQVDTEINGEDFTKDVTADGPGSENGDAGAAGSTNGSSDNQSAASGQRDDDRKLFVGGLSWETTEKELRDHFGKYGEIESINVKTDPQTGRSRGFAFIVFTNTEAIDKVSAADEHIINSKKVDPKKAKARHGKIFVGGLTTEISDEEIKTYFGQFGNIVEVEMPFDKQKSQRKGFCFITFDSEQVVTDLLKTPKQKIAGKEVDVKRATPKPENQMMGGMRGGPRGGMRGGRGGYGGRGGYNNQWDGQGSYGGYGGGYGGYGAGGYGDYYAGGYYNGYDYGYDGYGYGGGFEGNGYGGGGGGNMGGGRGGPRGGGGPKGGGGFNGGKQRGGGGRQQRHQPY
Assay: co-IP; 100 ug of nuclear protein extract; anti-Squid antibody (1B11) on Dynabeads protein A, IgG anti-mouse as control; incubation over night; washes in 10 mM Hepes-KOH pH 8, 100 mM NaCl, 0.05 tween 20, 10% Glycerol; blot with anti-Squid and anti-Hrb87F

B1: Hrb87F (protein, UniProt P48810 1-385)
chain: MAEQNDSNGNYDDGEEITEPEQLRKLFIGGLDYRTTDDGLKAHFEKWGNIVDVVVMKDPKTKRSRGFGFITYSQSYMIDNAQNARPHKIDGRTVEPKRAVPRQEIDSPNAGATVKKLFVGGLRDDHDEECLREYFKDFGQIVSVNIVSDKDTGKKRGFAFIEFDDYDPVDKIILQKTHSIKNKTLDVKKAIAKQDMDRQGGGGGRGGPRAGGRGGQGDRGQGGGGWGGQNRQNGGGNWGGAGGGGGFGNSGGNFGGGQGGGSGGWNQQGGSGGGPWNNQGGGNGGWNGGGGGGYGGGNSNGSWGGNGGGGGGGGGFGNEYQQSYGGGPQRNSNFGNNRPAPYSQGGGGGGFNKGNQGGGQGFAGNNYNTGGGGQGGNMGGGNRRY
  binding: binds

Reference: article PMC4490448
